Test results as given in PMC12048156.

Target: T1, Irf8 (mouse (endogenous; cells of the co-IP not named)) (UniProt P23611)
T1 sequence: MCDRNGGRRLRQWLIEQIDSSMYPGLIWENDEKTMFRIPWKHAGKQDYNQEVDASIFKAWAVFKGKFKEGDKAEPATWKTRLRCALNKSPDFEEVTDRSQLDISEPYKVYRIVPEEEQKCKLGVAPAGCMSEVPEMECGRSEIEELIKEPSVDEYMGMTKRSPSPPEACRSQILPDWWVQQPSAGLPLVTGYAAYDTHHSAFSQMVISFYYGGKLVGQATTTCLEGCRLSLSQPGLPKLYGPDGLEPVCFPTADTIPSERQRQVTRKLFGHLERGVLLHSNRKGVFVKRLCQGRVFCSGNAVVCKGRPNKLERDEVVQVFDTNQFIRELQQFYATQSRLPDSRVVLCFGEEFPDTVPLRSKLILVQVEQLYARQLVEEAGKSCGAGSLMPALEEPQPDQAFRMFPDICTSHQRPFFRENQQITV
Experiment: co-IP; endogenous proteins in whole-cell lysate (50 mM Tris-HCl, 1% Nonidet-P40, 0.1% SDS, 150 mM NaCl); 1000 ug protein with antibodies against Aff3ir-ORF2, Irf5 or Irf8 at 4 °C for 12 hr, Protein A/G PLUS-Agarose beads, five washes with lysis buffer, Western blot

binding: binds
Substance: Aff3ir-ORF2 (mouse)

No constants are given. Whether binding was seen depends on the method and setting. Binding seen in cells or lysates may run through a third protein. Binding can be weak; no strength is given.
